Data published in paper PMC3547847.

Chains of the proteins cited; added tags and fusions are not shown.
UniProt O95568: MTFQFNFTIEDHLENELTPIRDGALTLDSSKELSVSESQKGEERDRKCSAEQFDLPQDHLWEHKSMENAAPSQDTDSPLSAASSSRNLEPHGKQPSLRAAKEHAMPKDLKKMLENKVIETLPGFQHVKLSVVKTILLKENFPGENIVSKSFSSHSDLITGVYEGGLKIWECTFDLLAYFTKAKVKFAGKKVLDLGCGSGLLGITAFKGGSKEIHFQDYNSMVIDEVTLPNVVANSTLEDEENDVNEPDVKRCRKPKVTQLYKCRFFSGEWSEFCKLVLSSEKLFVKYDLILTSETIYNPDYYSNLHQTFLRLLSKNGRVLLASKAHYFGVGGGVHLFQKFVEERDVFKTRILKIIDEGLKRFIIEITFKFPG
UniProt Q8WXB1: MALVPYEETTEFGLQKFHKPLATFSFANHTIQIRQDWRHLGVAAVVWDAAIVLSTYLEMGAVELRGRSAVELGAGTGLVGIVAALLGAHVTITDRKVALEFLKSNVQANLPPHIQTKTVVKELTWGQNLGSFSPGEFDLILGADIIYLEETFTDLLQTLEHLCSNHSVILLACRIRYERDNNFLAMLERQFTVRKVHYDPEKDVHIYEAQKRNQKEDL
UniProt Q9BQ67: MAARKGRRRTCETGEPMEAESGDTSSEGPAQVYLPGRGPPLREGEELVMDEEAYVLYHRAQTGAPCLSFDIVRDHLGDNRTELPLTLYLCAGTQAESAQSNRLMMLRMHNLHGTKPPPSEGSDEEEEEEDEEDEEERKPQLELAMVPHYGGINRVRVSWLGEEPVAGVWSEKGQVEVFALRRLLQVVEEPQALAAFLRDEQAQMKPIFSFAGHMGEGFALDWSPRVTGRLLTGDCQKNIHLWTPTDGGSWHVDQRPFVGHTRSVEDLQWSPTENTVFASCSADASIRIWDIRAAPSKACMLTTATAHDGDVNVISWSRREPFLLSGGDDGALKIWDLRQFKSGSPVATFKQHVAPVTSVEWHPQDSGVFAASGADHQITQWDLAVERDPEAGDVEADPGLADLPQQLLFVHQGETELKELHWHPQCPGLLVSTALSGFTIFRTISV
UniProt P11142: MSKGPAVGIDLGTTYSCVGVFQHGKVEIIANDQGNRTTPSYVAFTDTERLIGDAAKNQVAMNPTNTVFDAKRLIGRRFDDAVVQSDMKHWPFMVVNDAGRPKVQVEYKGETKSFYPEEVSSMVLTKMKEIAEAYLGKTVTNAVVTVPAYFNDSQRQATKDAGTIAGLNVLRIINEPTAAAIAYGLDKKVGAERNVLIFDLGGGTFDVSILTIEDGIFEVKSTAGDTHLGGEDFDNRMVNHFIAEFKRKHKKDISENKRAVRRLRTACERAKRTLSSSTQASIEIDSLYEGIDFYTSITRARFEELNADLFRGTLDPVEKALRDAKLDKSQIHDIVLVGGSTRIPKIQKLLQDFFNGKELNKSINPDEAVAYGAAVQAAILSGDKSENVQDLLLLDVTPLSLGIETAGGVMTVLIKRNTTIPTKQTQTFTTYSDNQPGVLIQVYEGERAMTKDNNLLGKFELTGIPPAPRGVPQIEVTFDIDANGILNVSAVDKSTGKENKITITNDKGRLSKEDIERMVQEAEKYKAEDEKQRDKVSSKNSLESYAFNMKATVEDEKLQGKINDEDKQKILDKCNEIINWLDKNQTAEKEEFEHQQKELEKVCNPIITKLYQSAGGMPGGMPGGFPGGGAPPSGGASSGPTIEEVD
UniProt P25694: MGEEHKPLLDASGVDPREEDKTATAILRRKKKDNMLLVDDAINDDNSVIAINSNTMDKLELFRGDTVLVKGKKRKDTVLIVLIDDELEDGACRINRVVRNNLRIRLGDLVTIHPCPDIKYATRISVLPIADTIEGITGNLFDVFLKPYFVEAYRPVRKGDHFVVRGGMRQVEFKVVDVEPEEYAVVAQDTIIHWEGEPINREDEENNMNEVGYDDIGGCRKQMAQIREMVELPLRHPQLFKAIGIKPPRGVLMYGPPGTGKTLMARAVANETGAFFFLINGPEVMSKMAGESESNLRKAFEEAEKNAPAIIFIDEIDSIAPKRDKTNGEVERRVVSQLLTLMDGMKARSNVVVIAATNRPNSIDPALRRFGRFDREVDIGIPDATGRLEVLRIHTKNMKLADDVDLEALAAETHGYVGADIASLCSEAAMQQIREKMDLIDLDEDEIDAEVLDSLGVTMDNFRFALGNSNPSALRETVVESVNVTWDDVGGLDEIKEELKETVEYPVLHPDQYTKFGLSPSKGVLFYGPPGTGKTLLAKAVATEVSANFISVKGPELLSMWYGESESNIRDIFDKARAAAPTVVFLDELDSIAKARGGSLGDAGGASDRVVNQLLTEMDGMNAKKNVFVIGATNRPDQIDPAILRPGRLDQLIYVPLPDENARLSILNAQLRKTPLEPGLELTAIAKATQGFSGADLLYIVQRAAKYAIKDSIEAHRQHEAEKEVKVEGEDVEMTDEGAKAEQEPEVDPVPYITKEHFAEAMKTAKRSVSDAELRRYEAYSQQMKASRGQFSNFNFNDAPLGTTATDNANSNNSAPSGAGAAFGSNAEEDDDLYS

Assays:
[1] = target: T1, METTL21B (TAP-tagged) (human) (UniProt Q96AZ1); assay: affinity purification with mass spectrometry; tandem affinity purification of C-terminally TAP-tagged methyltransferases from whole cell extracts of ponasterone A-induced EcR-293 cells; eluates on SDS-PAGE, silver stain, gel slices, LC-MS/MS; interactions scored with Decontaminator (FDR below 10%)
T1 sequence: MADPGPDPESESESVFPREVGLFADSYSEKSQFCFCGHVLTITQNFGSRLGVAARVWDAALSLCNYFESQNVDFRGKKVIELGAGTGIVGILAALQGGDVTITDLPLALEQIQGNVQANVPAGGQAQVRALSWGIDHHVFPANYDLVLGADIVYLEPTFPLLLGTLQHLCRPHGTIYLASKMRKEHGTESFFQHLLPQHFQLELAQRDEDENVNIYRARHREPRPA

[2] = target: METTL18 (TAP-tagged) (human) (UniProt O95568); assay: as above
[3] = target: METTL21A (TAP-tagged) (human) (UniProt Q8WXB1); assay: as above
[4] = target: T2, Nnt1p (TAP-tagged NNT1) (Saccharomyces cerevisiae) (UniProt Q05874); assay: affinity purification with mass spectrometry; tandem-affinity purification of TAP-tagged NNT1 from a constitutively expressing yeast strain, compared with untransformed strain BY4741
T2 sequence: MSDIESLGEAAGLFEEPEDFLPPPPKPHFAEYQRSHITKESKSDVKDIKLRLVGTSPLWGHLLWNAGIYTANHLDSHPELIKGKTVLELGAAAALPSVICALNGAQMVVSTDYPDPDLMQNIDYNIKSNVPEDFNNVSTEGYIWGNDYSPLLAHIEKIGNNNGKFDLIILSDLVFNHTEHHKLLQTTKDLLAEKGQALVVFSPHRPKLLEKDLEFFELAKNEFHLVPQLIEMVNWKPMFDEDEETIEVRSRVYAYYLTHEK

binding [1]	Substance	other results
binds	STIP1 (endogenous, prey) (from UniProt P31948 1-543)	–
–	GRWD1 (endogenous, prey) (from UniProt Q9BQ67 1-446)	binding [2]: binds
–	HSPA8/Hsc70 (endogenous, prey) (from UniProt P11142 1-646)	binding [3]: binds
binds	Hsp70 (in the METTL21B purification) (human (endogenous in EcR-293))	–
binds	Hsp90 (in the METTL21B purification) (human (endogenous in EcR-293))	–
–	Cdc48p (from UniProt P25694 1-835)	binding [4]: binds

These are yes or no findings as the source states them, for the method shown. In cells and extracts the contact can be indirect. A yes stands for co-enrichment or nearness to the bait. Other partners may have been found. For part of these data: Where a sequence is shown, tags or fusion partners need not be part of it.
